Values of other authors as cited in patent US20250324983A1, “METHOD AND APPARATUS FOR CONTROLLING ARTHROPODS USING MASSOIA ESSENTIAL OIL AND RELATED PYRONES” (The United States of America, as Represented by the …, priority 2024, published 2025).
At least one compound was matched to its structure with a doubt left.

Test system: Aedes albopictus
Settings: compounds identified from massoia and nutmeg essential oils; cited from earlier work

In the case of `C=CCc1ccc(OC)c(OC)c1` [methyl eugenol], the “larvicidal activity (in words)” value is given as “strong larvicidal activity”.
